The data set concerns α2δ-1.
Setting [1] is: morphine- vs vehicle-treated rats.

The structures appear in SMILES notation.

As for `CN1CC[C@]23c4c5ccc(O)c4O[C@H]2[C@@H](O)C=C[C@H]3[C@H]1C5.O=S(=O)(O)O` [morphine, morphine sulfate], the “α2δ-1 level in the DRG and dorsal spinal cord” value (morphine 5 mg/kg i.p. twice a day for 8 days vs vehicle) was “significantly higher”. Under setting [1], the “GluN1 and α2δ-1 protein levels in spinal cord synaptosomes” value was “significantly higher”; the “α2δ-1-GluN1 protein complex level in the dorsal spinal cord” value is “much higher”.
